Assay results taken from patent US20100216772A1, “Novel Phenantridine Analogues and Uses Thereof” (priority 2004, published 2010).

Tested on: Peripheral blood mononuclear cells (PBMCs)
Assay: Influence of compounds on T cell proliferation ([3H]-Thymidin, anti-CD3-stimulated PBMCs)
Assay type: cell-based
Details: PBMC, three different human donors
Text: Peripheral blood mononuclear cells (PBMCs) were isolated from peripheral blood by Ficoll gradient centrifugation. […] Subsequently, the cells were washed three times with PBS and were resuspended in 96-well plates in a concentration of 2×10^5 cells/well. […] As positive and negative controls, PBMCs, stimulated with soluble anti-CD3-antibody, and non-stimulated PBMCs plus 0,1% DMSO were used. The addition of 0,1% DMSO had no effect on the proliferation rate. […] The cells were harvested using a Mikro 96 Harvester (Skatron Instruments, Lier, Norwegen). The cpm-values indicative for proliferation were determined using a Packard Matrix 9600 Counter (Canberra Packard, Schwadorf, Österreich). The experiments were made with three different human donors.
In order to determine the EC50 of test compounds, the value of anti-CD3-stimulated cells plus 0,1% DMSO was set as 100%. All other values were divided by the 100% value in order to obtain a relative percentage of inhibition. The obtained percentage values were used to determine the EC50 values using Sigma Plot.

Structure (SMILES): O=C1CN(S(=O)(=O)c2ccc(Cl)cc2)c2ccccc2-c2ccccc21 [Example 80, 5-(4-Chloro-benzenesulfonyl)-5,6-dihydro-dibenzo[b,d]azepin-7-one]
- EC50: < 25 µM
